Our source for the binding signal values is PMC7819943, “Rice protein-binding microarrays: a tool to detect cis-acting elements near promoter regions in rice”.

This is one part of the list.

This assay deals with T1, OsSMF1 (Oryza sativa, UniProt Q6ZLB0 1-436).
T1 sequence: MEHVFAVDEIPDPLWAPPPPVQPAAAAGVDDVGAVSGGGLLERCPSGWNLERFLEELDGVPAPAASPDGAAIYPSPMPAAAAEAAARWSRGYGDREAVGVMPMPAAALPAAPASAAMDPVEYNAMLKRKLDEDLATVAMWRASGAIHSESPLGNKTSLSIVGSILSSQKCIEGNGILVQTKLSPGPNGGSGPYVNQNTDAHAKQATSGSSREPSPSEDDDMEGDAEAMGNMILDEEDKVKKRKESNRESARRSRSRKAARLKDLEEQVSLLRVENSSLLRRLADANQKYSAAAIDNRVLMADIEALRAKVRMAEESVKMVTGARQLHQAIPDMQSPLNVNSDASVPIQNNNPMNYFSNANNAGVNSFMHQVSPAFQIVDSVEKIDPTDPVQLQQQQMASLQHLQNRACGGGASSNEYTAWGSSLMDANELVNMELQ
Put plainly: protein-binding microarray (RPBM); PBS, 2% BSA, 51.3 ng/ul salmon testes DNA, 50 uM zinc acetate, 200 nM TF, 25 C, 1 h; high values mean tight binding. The note with it: protein: recombinant; tags: N-terminal polyhistidine and DsRed monomer fusion (pET32a); chain copies: 2; label: CyDye5-dUTP incorporated in the synthesized complementary strand; 3' TTTTT single-stranded linker to array surface; dsDNA, one strand shown. An outline of the steps:
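The binding signal is fluorescence intensity per feature, in arbitrary units, read on an Axon 4000B scanner. Polyhistidine- and DsRed-tagged transcription factors (N-terminal fusions) from E. coli BL21-CodonPlus were purified on Ni–NTA and applied at 200 nM for 1 h at 25 °C to a double-stranded, BSA-blocked custom Agilent array in buffer with 50 µM zinc acetate.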
Turning to “CAAAACCGCCGGTAACCGCCCTTACCACGGGGTATAGTAACGGAGTCACCTAGTGCAG”, the binding signal was 16600 fluorescence intensity (a.u.).
The value for “TAAGTCTGGTAAAGTTTTACTGTGCCCACGTAATATCATACGGAGTCACCTAGTGCAG” was 28600 fluorescence intensity (a.u.); that for “AACAACAACAACGCATTGCAAAGCAAGGAGAAATCCGAAGCGGAGTCACCTAGTGCAG” was 14400 fluorescence intensity (a.u.).
The value for “GTGGGTGAAACCTCTTACTACGTGTGTGGTTTAGTTGAAACGGAGTCACCTAGTGCAG” was 24000 fluorescence intensity (a.u.); that for “CCACTCATATGTCAATGACACGTGGGGTCCACACGCGTCTCGGAGTCACCTAGTGCAG” was 20600 fluorescence intensity (a.u.).
As for “TTTTCAAGACGTCAACGCCAACCACGTTGGCATCAACGTCCGGAGTCACCTAGTGCAG”, the binding signal was 6550 fluorescence intensity (a.u.).
For the sequence “GAGGGGAAAGAGAAAGGTGTTGGCGTGGCATCCTGACATTCGGAGTCACCTAGTGCAG”, the binding signal is 8550 fluorescence intensity (a.u.).
For the sequence “AATATAAACAACACGTCAGAGATCAGACACCCACCTCTCCCGGAGTCACCTAGTGCAG”, the binding signal was 11100 fluorescence intensity (a.u.).
The value for “CAAGGCGGCCCAACCATCTTCGAAATGCGGCCCATGACGACGGAGTCACCTAGTGCAG” was 39100 fluorescence intensity (a.u.); that for “AACTTGATGTTGATGGGCGTCATCCAGTTCAAACAAATACCGGAGTCACCTAGTGCAG” was 3420 fluorescence intensity (a.u.).
Regarding “CAGTAATTGTCACTATCTTATTACACATTATTCTGTCCAGCGGAGTCACCTAGTGCAG”, the binding signal was 3340 fluorescence intensity (a.u.).
In the case of “CCCGCGCCGAGGCCATGTGGTGCCTCCTCTCCTGTGATCTCGGAGTCACCTAGTGCAG”, the binding signal was 3360 fluorescence intensity (a.u.).
The value for “TGCAGCCCTTGTAGAGAGCGGCAAGGGACTATTTGTGTAACGGAGTCACCTAGTGCAG” was 10000 fluorescence intensity (a.u.); that for “CATCGGCTGACATCGACGTCGGCTCTTTGTTGATCATCATCGGAGTCACCTAGTGCAG” was 5440 fluorescence intensity (a.u.); that for “CAACGATATATATACCACCTGCCACCCCTTCTTCTCCTCTCGGAGTCACCTAGTGCAG” was 3300 fluorescence intensity (a.u.).
As for “TGGATCGAATTGCCATGTAACCACCATGTTACTGCCACGTCGGAGTCACCTAGTGCAG”, the binding signal was 11100 fluorescence intensity (a.u.).
The value for “GAGTGTTCTTGTCAGTTGTCACCACTCTCTTTCTCTTCTTCGGAGTCACCTAGTGCAG” was 3180 fluorescence intensity (a.u.); that for “TTCAAAATGTTTATTACAGCTCATACAGTTTTATTGCTGCCGGAGTCACCTAGTGCAG” was 6240 fluorescence intensity (a.u.).
For “CGAGCCCATTATTTACTGGCCGTCTGGCCCTCATTTGGTCCGGAGTCACCTAGTGCAG”, the binding signal is 3150 fluorescence intensity (a.u.).
Consider “CTCTCCTTGTAGGCATGTCATCGAACACGTGGCATGCGTCCGGAGTCACCTAGTGCAG”, for which the binding signal was 16000 fluorescence intensity (a.u.).
As for “CATGCGTGCAGCGTTGGGTCTGGGACGGCACACGTGGAGCCGGAGTCACCTAGTGCAG”, the binding signal is 6150 fluorescence intensity (a.u.).
On to “TCTTATGCAAGTGTTTGTTTCGTCACCAAAATTGTGGCATCGGAGTCACCTAGTGCAG”, for which the binding signal was 3690 fluorescence intensity (a.u.).
In the case of “TCAGGACTGCCACACGTACGCCACGTAGACCAAAATCGCCCGGAGTCACCTAGTGCAG” it was 22700 fluorescence intensity (a.u.); in that of “AGTACTCTTGTTGGAGCACAAACAAGCTAACAGCTGGCTACGGAGTCACCTAGTGCAG”, 23400 fluorescence intensity (a.u.); in that of “ATCAGCGCGCCACGTGTGAAGACGGGGCTCCGTTACGTGGCGGAGTCACCTAGTGCAG”, 15500 fluorescence intensity (a.u.).
As to “CGACGCCGAAAGACGCCGTCGTCATCCGTCCAAGGAATTGCGGAGTCACCTAGTGCAG”, the binding signal was 5810 fluorescence intensity (a.u.).
Regarding “GGTCAAGCATCTGATATGACATCCAAAATTTTCTTTTCGCCGGAGTCACCTAGTGCAG”, the binding signal is 3280 fluorescence intensity (a.u.).
As to “TGACATGTAAATTAACATAGAGATATTTCTTAATTTGACACGGAGTCACCTAGTGCAG”, the binding signal was 35100 fluorescence intensity (a.u.).
Regarding “CGCGCGCGCCGCCGCCGGTCGGTAACGACGGCGACGATGACGGAGTCACCTAGTGCAG”, the binding signal was 65500 fluorescence intensity (a.u.).
For the sequence “AGAAGAACGATGGTGATTCATGGAGAAAGAGCAGTGATGGCGGAGTCACCTAGTGCAG”, the binding signal was 3230 fluorescence intensity (a.u.).
As for “TTAAACCGACGGACGATGACTCAGTCACACAAGAACCAGTCGGAGTCACCTAGTGCAG”, the binding signal is 5490 fluorescence intensity (a.u.).
The value for “AAAGAGGCAATATTTTGACGACACATTTGCCCCGTGTACCCGGAGTCACCTAGTGCAG” was 4280 fluorescence intensity (a.u.); that for “CTTAACAATTTGAGAGTTATCATGATTTATATTTCCAAGGCGGAGTCACCTAGTGCAG” was 26600 fluorescence intensity (a.u.).
As for “AAATAGGGACGCTGTGATGCGTCGGCACAACACAAAACGACGGAGTCACCTAGTGCAG”, the binding signal was 3280 fluorescence intensity (a.u.).
In the case of “TTGTAAATTGTTACCCATCTATCATCCAATCAAATTTCAGCGGAGTCACCTAGTGCAG”, the binding signal was 4220 fluorescence intensity (a.u.).
“GTAGGGGAATTTCTATACCTGCTTTGCGGAACTCGATCCACGGAGTCACCTAGTGCAG”: the binding signal is 18500 fluorescence intensity (a.u.).
On to “GTTTCAACGTCACGTCACGCGTCACGGCTCAAGCATCAGCCGGAGTCACCTAGTGCAG”, for which the binding signal is 10500 fluorescence intensity (a.u.).
Regarding “TGGAGGCGACGTGGCGGTCGTTGACTCGTTGTGTGCTCGACGGAGTCACCTAGTGCAG”, the binding signal was 7090 fluorescence intensity (a.u.).
In the case of “TGGACGATGATCGACGCGGCGTGGTGCACGAGCGCCTCCGCGGAGTCACCTAGTGCAG” it was 3260 fluorescence intensity (a.u.).
In the case of “CGGATGGCAATGTCGCACCAAGAAATACGCGCACGAGCTGCGGAGTCACCTAGTGCAG” it was 3480 fluorescence intensity (a.u.).
With “GAGGGGCGCGGGCGCCGAGCTCCATCTGGCGAGCAGGGTACGGAGTCACCTAGTGCAG”, the binding signal is 42200 fluorescence intensity (a.u.).
On to “CCCCTGTCAATACAACCAGCTGCACGCCCATTCGTCTCAACGGAGTCACCTAGTGCAG”, for which the binding signal was 3550 fluorescence intensity (a.u.).
